Data from publication PMC5686453 (ACS chemical neuroscience, 2017).

What was measured:
[1] = test system: lactic acid-depressed nesting in mice; settings: previous study; cited from earlier work
[2] = test system: 0.6% acetic acid-induced writhing in mice; assay: 0.6% acetic acid-induced writhing; format: in vivo, ICR mice; settings: s.c. pretreatment, 25 min observation
[3] = test system: 0.32% lactic acid-induced writhing in mice; format: in vivo, ICR mice; settings: s.c. pretreatment, 25 min observation

SMILES: CN1CC[C@]23c4c5ccc(O)c4O[C@H]2[C@@H](O)C=C[C@H]3[C@H]1C5 [morphine, reference compound]
- reversal of depressed nesting behavior in […] lactic acid-treated mice [1]: partially effective
- effect on 0.6% acetic acid-induced writhing (in words) [2]: dose-dependently attenuated
- effect on […] lactic acid-induced writhing (in words) [3]: dose-dependently reduced
